Structures are written as SMILES. Where a name gives a salt, the structure may show the parent alone. The list shows a part of the results. This data set is noisy: repeats of one test often differ as much as different tests do.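 Human fetal ventral-midbrain neural progenitor line ReNCell VM, differentiated without mitogens. Images stained for doublecortin (early neurons) or tyrosine hydroxylase (dopaminergic neurons) were scored by blinded raters against untreated wells (0 = no change). Repeats and both raters were averaged, and compounds averaging 2 or higher were picked as hits for retesting.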

Test [1] relates to ReNCell VM. In words: neuronal differentiation score (DCX+ cell fraction vs untreated, manual image score) (score (-3 to 3)); higher = more neuronal differentiation. To be noted: 2 uM, 2 weeks.
For test [2], the system named is ReNCell VM. In words: dopaminergic neuron differentiation score (TH+ cell fraction vs untreated, manual image score) (score (0 to 3)); higher = more TH+ dopaminergic neuron differentiation. The note with it: 2 uM, 4 weeks, BDNF 10 ng/ml + GDNF 10 ng/ml.

Consider `CC(C)(C(=O)O)c1ccc(C(O)CCCN2CCC(C(O)(c3ccccc3)c3ccccc3)CC2)cc1` (configuration not stated), for which the neuronal differentiation score in the test on ReNCell VM [1] (library: Spectrum) was inactive: 1. Further, the “dopaminergic neuron differentiation score” value with ReNCell VM [2] (library: Spectrum) was inactive: 0.
For `C[C@H]1[C@H](C)CC[C@]2(C(=O)O)CC[C@]3(C)C(=CC[C@@H]4[C@@]5(C)CC[C@H](O)C(C)(C)[C@@H]5CC[C@]43C)[C@H]12` [Ursolic acid], the neuronal differentiation score in the test on ReNCell VM [1] (library: Phytochemical) was inactive: 0. The “dopaminergic neuron differentiation score” value in the test with ReNCell VM [2] (library: Phytochemical) is inactive: 0.
As for `CC1(C)O[C@@H]2C[C@H]3[C@@H]4CCC5=CC(=O)C=C[C@]5(C)[C@H]4[C@@H](O)C[C@]3(C)[C@]2(C(=O)CO)O1`, the neuronal differentiation score with ReNCell VM [1] (library: Spectrum) was inactive: 0. The “dopaminergic neuron differentiation score” value in the test with ReNCell VM [2] (library: Spectrum) is inactive: 0.
`C=CC[N@@+]12CC[C@@]34c5ccccc5N5/C=C6/[C@H]7C[C@H]8[C@@]9(CC[N@@+]8(CC=C)C/C7=C/CO)c7ccccc7N(/C=C(/[C@@H](C[C@@H]31)/C(=C\CO)C2)[C@H]54)[C@@H]69` [Alcuronium chloride]: the neuronal differentiation score in the test with ReNCell VM [1] (library: Prestwick) was inactive: 0. Moreover, the “dopaminergic neuron differentiation score” value in the test with ReNCell VM [2] (library: Prestwick) was inactive: 0.
Consider `CCOC(=O)Nc1ccc2c(c1)N(C(=O)CCN1CCOCC1)c1ccccc1S2` [Moricizine hydrochloride], for which the neuronal differentiation score in the test with ReNCell VM [1] (library: Prestwick) was inactive: 0. The “dopaminergic neuron differentiation score” value in the test on ReNCell VM [2] (library: Prestwick) was inactive: 0.
Consider `C[C@H](CCC(=O)O)[C@H]1CC[C@H]2[C@@H]3[C@H](O)C[C@@H]4C[C@H](O)CC[C@]4(C)[C@H]3CC[C@]12C` [Chenodiol], for which the neuronal differentiation score in the test with ReNCell VM [1] (library: Prestwick) is inactive: 0. Moreover, in the test with ReNCell VM [2] (library: Prestwick), the “dopaminergic neuron differentiation score” value was inactive: 0.
As for `Nc1ccn([C@@H]2O[C@H](CO)[C@@H](O)[C@@H]2O)c(=O)n1`, in the test on ReNCell VM [1] (library: Spectrum), the neuronal differentiation score was inactive: 0. Also, in the test with ReNCell VM [2] (library: Spectrum), the “dopaminergic neuron differentiation score” value is inactive: 0.
Regarding `OC(CCN1CCCCC1)(c1ccccc1)C1CCCCC1` (configuration not stated), the neuronal differentiation score with ReNCell VM [1] (library: Spectrum) is inactive: 0. Moreover, the “dopaminergic neuron differentiation score” value in the test with ReNCell VM [2] (library: Spectrum) was inactive: 0.
Consider `Nc1nc2n[nH]nc2c(=O)[nH]1` [Azaguanine-8], for which, in the test with ReNCell VM [1] (library: Prestwick), the neuronal differentiation score was inactive: 0. For the same compound, in the test with ReNCell VM [2] (library: Prestwick), the “dopaminergic neuron differentiation score” value was inactive: 0.
Consider `CN(C)CCc1c[nH]c2ccc(Cn3cncn3)cc12`, for which the neuronal differentiation score with ReNCell VM [1] (library: Spectrum) was inactive: 1. Further, the “dopaminergic neuron differentiation score” value in the test with ReNCell VM [2] (library: Spectrum) was inactive: 0.
The like results for `C/C=C(/C(=C/C)c1ccc(O)cc1)c1ccc(O)cc1` were, in that order, inactive: 0 and inactive: 0.
With `S=C(Nc1ccccc1)Nc1nccs1` [1-Phenyl-3-(2-thiazolyl)-2-thiourea], in the test on ReNCell VM [1] (library: LOPAC), the neuronal differentiation score is inactive: 0. For the same compound, in the test with ReNCell VM [2] (library: LOPAC), the “dopaminergic neuron differentiation score” value is inactive: 0.
Take `Cc1c(-c2ccccc2)oc2c(C(=O)OCCN3CCCCC3)cccc2c1=O` [Flavoxate hydrochloride]: in the test on ReNCell VM [1] (library: Prestwick), the neuronal differentiation score is inactive: 0. Besides, the “dopaminergic neuron differentiation score” value in the test on ReNCell VM [2] (library: Prestwick) is inactive: 0.
Turning to `CCN(CC)CCOC(=O)C(Cc1cccc2ccccc12)CC1CCCO1` (configuration not stated), in the test with ReNCell VM [1] (library: Spectrum), the neuronal differentiation score was inactive: 0. In addition, the “dopaminergic neuron differentiation score” value in the test on ReNCell VM [2] (library: Spectrum) is inactive: 0.
Turning to `CCN(CC)CCNC(=O)c1cc(Cl)c(N)cc1OC` [Metoclopramide hydrochloride], in the test with ReNCell VM [1] (library: LOPAC), the neuronal differentiation score was inactive: 0. Moreover, the “dopaminergic neuron differentiation score” value with ReNCell VM [2] (library: LOPAC) was inactive: 0.
On to `COC(=O)[C@@]1(C)CCC[C@]2(C)c3ccc(O)c(C(C)C)c3CCC12` (some centres not stated), for which the neuronal differentiation score in the test with ReNCell VM [1] (library: Spectrum) is inactive: 0. Moreover, the “dopaminergic neuron differentiation score” value with ReNCell VM [2] (library: Spectrum) is inactive: 0.
In the case of `COc1ccc2[nH]c(-c3ccccc3)c(CCNC(C)=O)c2c1` [2-Phenylmelatonin], in the test on ReNCell VM [1] (library: Tocriscreen), the neuronal differentiation score is inactive: 0. For the same compound, in the test with ReNCell VM [2] (library: Tocriscreen), the “dopaminergic neuron differentiation score” value was inactive: 0.
Take `C[C@@H]1C[C@H]2[C@@H]3CCC4=CC(=O)C=C[C@]4(C)[C@@]3(Cl)[C@@H](O)C[C@]2(C)[C@@]1(OC(=O)c1ccco1)C(=O)CCl`: in the test with ReNCell VM [1] (library: Spectrum), the neuronal differentiation score is inactive: 0. Besides, the “dopaminergic neuron differentiation score” value in the test on ReNCell VM [2] (library: Spectrum) was inactive: 0.
For `Nc1ccc(O)c(C(=O)O)c1`, the neuronal differentiation score in the test with ReNCell VM [1] (library: Spectrum) is inactive: 0. Further, in the test on ReNCell VM [2] (library: Spectrum), the “dopaminergic neuron differentiation score” value was inactive: 0.
As to `NS(=O)(=O)c1cc2c(cc1C(F)(F)F)NCNS2(=O)=O` [Hydroflumethiazide], the neuronal differentiation score with ReNCell VM [1] (library: Prestwick) was inactive: 0. Besides, the “dopaminergic neuron differentiation score” value with ReNCell VM [2] (library: Prestwick) was inactive: 0.
Take `CNC(=O)[C@@H](Cc1ccccc1)N(C)C(=O)[C@@H](Cc1ccc2ccccc2c1)N(C)C(=O)/C=C/CC(C)(C)N` [Tabimorelin]: the neuronal differentiation score in the test with ReNCell VM [1] (library: Tocriscreen) is inactive: 0. For the same compound, in the test with ReNCell VM [2] (library: Tocriscreen), the “dopaminergic neuron differentiation score” value is inactive: 0.
As for `CC1=C(C/C=C(\C)CCC[C@H](C)CCC[C@H](C)CCCC(C)C)C(=O)c2ccccc2C1=O`, the neuronal differentiation score in the test on ReNCell VM [1] (library: Spectrum) was inactive: 0. Further, in the test on ReNCell VM [2] (library: Spectrum), the “dopaminergic neuron differentiation score” value is inactive: 0.
For the compound `CC(=O)N(O)[C@@H]1c2cc(C#N)ccc2OC(C)(C)[C@H]1O`, in the test on ReNCell VM [1] (library: Tocriscreen), the neuronal differentiation score is inactive: 0. The “dopaminergic neuron differentiation score” value with ReNCell VM [2] (library: Tocriscreen) is inactive: 0.
Regarding `Oc1ccc(C2CNCCc3c2cc(O)c(O)c3Cl)cc1` (configuration not stated) [Fenoldopam hydrochloride], the neuronal differentiation score in the test on ReNCell VM [1] (library: Tocriscreen) was inactive: 0. Further, in the test on ReNCell VM [2] (library: Tocriscreen), the “dopaminergic neuron differentiation score” value is inactive: 0.
With `NC(=O)NCCC[C@H](N)C(=O)O`, the neuronal differentiation score in the test with ReNCell VM [1] (library: Spectrum) was inactive: 0. In addition, the “dopaminergic neuron differentiation score” value in the test on ReNCell VM [2] (library: Spectrum) is inactive: 0.
Turning to `Cc1nc2ccccn2c(=O)c1CCN1CCC(C(=O)c2ccc(F)cc2)CC1`, in the test on ReNCell VM [1] (library: Spectrum), the neuronal differentiation score is inactive: 0. Also, the “dopaminergic neuron differentiation score” value in the test on ReNCell VM [2] (library: Spectrum) is inactive: 0.

The record behind these values is the supplement of paper PMC4635364.
